# According to PubChem BioAssay AID1487 (National Center for Advancing Translational Sciences (NCATS), 2009):
# This is one part of the list. The main result of the screen is listed elsewhere. These columns were measured beside it and carry no call. Most of these compounds were active or inconclusive in the main read-out, so they are no random draw. Words in brackets tell the shape of the fitted curve; partial curves, single points and poor fits give uncertain potencies.
# Assay: qHTS Assay for Modulators of Lamin A Splicing
# Details: HeLa LMNA splicing GFP/RFP minigene ratio, 48 h
# Procedure, shortened: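 S3 HeLa cells stably expressing lamin A-EGFP splicing minigene plus DsRed2, 600 cells/well, 48 h compound exposure at 37C. Laser-scanning cytometry; analysed as GFP (500-530 nm)/RFP (575-640 nm) total intensity ratio; 0.5% DMSO vehicle.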
# [1] = measured here: GFP splicing reporter channel
# [2] = measured here: RFP viability control channel
SMILES,AC50 [1],AC50 [2]
COc1ccccc1CNc1nc(-c2ccco2)nn1S(=O)(=O)c1ccc(Cl)cc1,"0.794 µM [rising, partial curve]","28.2 µM [rising, single point]"
CCOc1ccc(N(CC(=O)Nc2ccc(F)c(F)c2)S(=O)(=O)c2c(C)noc2C)cc1,"10 µM [rising, partial curve, poor fit]","12.6 µM [rising, partial curve, poor fit]"
Cc1ccc(-c2nnn(CC(=O)NC3CC4CCC3C4)n2)cc1 (stereo unspecified),"35.5 µM [rising, single point]","22.4 µM [rising, single point]"
CC(=O)c1cccc(NC(=S)NC(=O)c2ccc(Cl)cc2)c1,–,"35.5 µM [rising, single point]"
CCn1cnc2c1c(=O)n(Cc1csc(-c3ccccc3)n1)c(=O)n2Cc1ccccc1,"12.6 µM [rising, single point]","20 µM [rising, single point]"
Cc1ccccc1NC(=O)CSc1nc2ccc(NC(=O)COc3ccccc3F)cc2s1,"15.8 µM [falling, partial curve]","12.6 µM [falling, partial curve]"
COc1cc(-n2c(=O)c3ccccc3n(CC(=O)c3ccc(Br)cc3)c2=O)cc(OC)c1OC,–,"5.01 µM [falling, full curve, poor fit]"
Clc1ccc(-c2c[n+](Cc3ccc(Cl)c(Cl)c3)c3n2CCC3)cc1,–,"22.4 µM [rising, single point]"
CCOc1cc(/C=N/O)cc(Br)c1OCC(=O)NCc1ccccc1,–,"31.6 µM [rising, single point]"
Cc1ccc(NC(=O)CSc2n[nH]c(-c3ccncc3)n2)cc1,"1.78 µM [rising, full curve, poor fit]",–
CCC(=O)N1c2ccc(S(=O)(=O)CCC(=O)N3CCn4c3nc3ccccc34)cc2CC1C (stereo unspecified),"6.31 µM [falling, single point]","0.355 µM [falling, partial curve]"
CCOC(=O)CCn1nc(-c2ccc(Cl)cc2)cc1N,–,"35.5 µM [falling, single point]"
CCSc1nc(=S)cc(C)[nH]1,"0.0178 µM [falling, full curve, poor fit]","0.02 µM [falling, full curve, poor fit]"
O=C(c1ccc(C#CC2(O)CCCCC2)cc1)N1CCN(C(c2ccccc2)c2ccccc2)CC1,"15.8 µM [rising, single point]","20 µM [rising, single point]"
NC(=O)c1ncn(C2OC(CO)C(O)C2O)c1N (stereo unspecified),"0.01 µM [falling, full curve, poor fit]","0.794 µM [rising, full curve, poor fit]"
CC(/C=C/C=C(\C)C(=O)O[C@@H]1O[C@H](CO[C@@H]2O[C@H](CO)[C@@H](O)[C@H](O)[C@H]2O)[C@@H](O)[C@H](O)[C@H]1O)=C\C=C\C=C(C)\C=C\C=C(/C)C(=O)O[C@@H]1O[C@H](CO[C@@H]2O[C@H](CO)[C@@H](O)[C@H](O)[C@H]2O)[C@@H](O)[C@H](O)[C@H]1O,"0.000891 µM [falling, full curve, poor fit]","15.8 µM [rising, single point]"
O=C(CN1CCN(c2ccc([N+](=O)[O-])cc2)CC1)Nc1ccccn1,"8.91 µM [rising, partial curve, poor fit]","22.4 µM [rising, partial curve]"
Nc1nc2ccccc2n1C(=O)c1ccc(F)cc1,"0.00316 µM [falling, full curve, poor fit]","0.00316 µM [falling, full curve, poor fit]"
CCC[C@H]1C[C@H](C(=O)N[C@H]([C@@H]2O[C@H](SC)[C@@H](O)[C@H](O)[C@@H]2O)[C@H](C)O)N(C)C1,"0.0631 µM [falling, full curve, poor fit]","0.0631 µM [falling, full curve, poor fit]"
N#C/C(=C\c1ccc2c(c1)OCO2)C(=O)NCc1ccco1,"1.12 µM [falling, partial curve, poor fit]","0.00398 µM [falling, full curve, poor fit]"
O=C(Nc1ccccc1)Nc1ccc(Cl)c([N+](=O)[O-])c1,–,"22.4 µM [rising, single point]"
Cc1ccc(CCC(=O)Nc2ccccc2F)s1,"5.01 µM [falling, single point]",–
COc1cc(OC)c(NC(=S)Nc2cc(Cl)cc(Cl)c2)cc1Cl,–,"35.5 µM [rising, single point]"
CCOC(=O)c1sc(N(Cc2ccccc2)C(=O)COC(=O)c2ccc(O)cc2)nc1C,"2.82 µM [rising, partial curve, poor fit]","14.1 µM [rising, partial curve, poor fit]"
CSc1nc2ccc(NS(=O)(=O)c3ccc4c(c3)OCCO4)cc2s1,–,"3.16 µM [rising, single point]"
CCc1ccc(N2C(=O)CS(=O)(=O)C23C(=O)N(Cc2ccccc2)c2ccccc23)cc1 (stereo unspecified),"2.51 µM [falling, partial curve, poor fit]",–
COc1ccc(OCCn2cc(/C=N/NC(=O)c3ccncc3)c3ccccc32)cc1,–,"35.5 µM [rising, single point]"
CCOc1ccc(NC(=S)N2CCCN(Cc3cccc(Cl)c3)C2)cc1,"20 µM [falling, single point]","20 µM [falling, partial curve, poor fit]"
O=[N+]([O-])c1cc(C2Nc3cccc4cccc(c34)N2)ccc1Cl,–,"0.794 µM [rising, full curve, poor fit]"
CCCc1nn(C)c2c(=O)[nH]c(-c3cc(S(=O)(=O)N4CCN(C)CC4)ccc3OCC)nc12,"35.5 µM [falling, single point]",–

# Record cards (already shown). Values in the order: AC50 [1] | AC50 [2]
# `COc1cc(-n2c(=O)c3ccccc3n(CC(=O)c3ccc(Br)cc3)c2=O)cc(OC)c1OC` in the list: – | 5.01 µM [falling, full curve, poor fit]
# `CCC[C@H]1C[C@H](C(=O)N[C@H]([C@@H]2O[C@H](SC)[C@@H](O)[C@H](O)[C@@H]2O)[C@H](C)O)N(C)C1` in the list: 0.0631 µM [falling, full curve, poor fit] | 0.0631 µM [falling, full curve, poor fit]
